The text below walks through data of US20060257938A1, “Method of screening for drugs that block ligand binding to a lipid binding protein” (priority 2005, published 2006).

Positions count from the first letter of the chain named.

B1: 40V1, L72A (protein, listed as Rattus norvegicus)
chain: AFDGTWKVDRNENYEKFMEKMGINVVKRKLGAHDNLKLTVTQEGNKFTVKESSNFRNIDVVFELGVDFAYSAADGTELTGTWTMEGNKLVGKFKRVDNGKELIAVREISGNELIQTYTYEGVEAKRIFKKE
modifications: PEPTIDE (1)...(131) wild-type rat intestinal fatty acid binding protein
B2: 38Y1, 72A (protein, listed as Rattus norvegicus)
chain: B1 chain with L38Y, V40I
modifications: PEPTIDE (1)...(131) wild-type rat intestinal fatty acid binding protein
B3: 38Q1, 72A (protein, listed as Rattus norvegicus)
chain: B1 chain with L38Q, V40I
modifications: PEPTIDE (1)...(131) wild-type rat intestinal fatty acid binding protein
B4: 47T1, L72A (protein, listed as Rattus norvegicus)
chain: B1 chain with V40I, F47T
modifications: PEPTIDE (1)...(131) wild-type rat intestinal fatty acid binding protein
B5: 40F2, L72A (protein, listed as Rattus norvegicus)
chain: B1 chain with V40F
modifications: PEPTIDE (1)...(131) wild-type rat intestinal fatty acid binding protein
B6: 38H1, 72A (protein, listed as Rattus norvegicus)
chain: B1 chain with L38H, V40I
modifications: PEPTIDE (1)...(131) wild-type rat intestinal fatty acid binding protein
B7: 38S1, 72A (protein, listed as Rattus norvegicus)
chain: B1 chain with L38S, V40I
modifications: PEPTIDE (1)...(131) wild-type rat intestinal fatty acid binding protein
B8: 47C3, L72A (protein, listed as Rattus norvegicus)
chain: B1 chain with V40I, F47C
modifications: PEPTIDE (1)...(131) wild-type rat intestinal fatty acid binding protein
B9: 47P1, L72A (protein, listed as Rattus norvegicus)
chain: B1 chain with V40I, F47P
modifications: PEPTIDE (1)...(131) wild-type rat intestinal fatty acid binding protein
B10: 38T3, 72A (protein, listed as Rattus norvegicus)
chain: B1 chain with L38T, V40I
modifications: PEPTIDE (1)...(131) wild-type rat intestinal fatty acid binding protein
B11: 38K1, 72A (protein, listed as Rattus norvegicus)
chain: B1 chain with L38K, V40I
modifications: PEPTIDE (1)...(131) wild-type rat intestinal fatty acid binding protein
B12: 47M, 72A (protein, listed as Rattus norvegicus)
chain: B1 chain with V40I, F47M
modifications: PEPTIDE (1)...(131) wild-type rat intestinal fatty acid binding protein
B13: 47S1, L72A (protein, listed as Rattus norvegicus)
chain: B1 chain with V40I, F47S
modifications: PEPTIDE (1)...(131) wild-type rat intestinal fatty acid binding protein
B14: 47V3, L72A (protein, listed as Rattus norvegicus)
chain: B1 chain with V40I, F47V
modifications: PEPTIDE (1)...(131) wild-type rat intestinal fatty acid binding protein
B15: 38N1, 72A (protein, listed as Rattus norvegicus)
chain: B1 chain with L38N, V40I
modifications: PEPTIDE (1)...(131) wild-type rat intestinal fatty acid binding protein
B16: 47L2, L72A (protein, listed as Rattus norvegicus)
chain: B1 chain with V40I, F47L
modifications: PEPTIDE (1)...(131) wild-type rat intestinal fatty acid binding protein
B17: 47E3, L72A (protein, listed as Rattus norvegicus)
chain: B1 chain with V40I, F47E
modifications: PEPTIDE (1)...(131) wild-type rat intestinal fatty acid binding protein
B18: 38G1, 72A (protein, listed as Rattus norvegicus)
chain: B1 chain with L38G, V40I
modifications: PEPTIDE (1)...(131) wild-type rat intestinal fatty acid binding protein
B19: 38W1, 72A (protein, listed as Rattus norvegicus)
chain: B1 chain with L38W, V40I
modifications: PEPTIDE (1)...(131) wild-type rat intestinal fatty acid binding protein
B20: 47A1, L72A (protein, listed as Rattus norvegicus)
chain: B1 chain with V40I, F47A
modifications: PEPTIDE (1)...(131) wild-type rat intestinal fatty acid binding protein
B21: 47I2, L72A (protein, listed as Rattus norvegicus)
chain: B1 chain with V40I, F47I
modifications: PEPTIDE (1)...(131) wild-type rat intestinal fatty acid binding protein
B22: 47R3, L72A (protein, listed as Rattus norvegicus)
chain: B1 chain with V40I, F47R
modifications: PEPTIDE (1)...(131) wild-type rat intestinal fatty acid binding protein
B23: 40Y3, L72A (protein, listed as Rattus norvegicus)
chain: B1 chain with V40Y
modifications: PEPTIDE (1)...(131) wild-type rat intestinal fatty acid binding protein
B24: 47H1, L72A (protein, listed as Rattus norvegicus)
chain: B1 chain with V40I, F47H
modifications: PEPTIDE (1)...(131) wild-type rat intestinal fatty acid binding protein
B25: 38I3, 72A (protein, listed as Rattus norvegicus)
chain: B1 chain with L38I, V40I
modifications: PEPTIDE (1)...(131) wild-type rat intestinal fatty acid binding protein
B26: 38V2, 72A (protein, listed as Rattus norvegicus)
chain: B1 chain with L38V, V40I
modifications: PEPTIDE (1)...(131) wild-type rat intestinal fatty acid binding protein
B27: 38A2, 72A (protein, listed as Rattus norvegicus)
chain: B1 chain with L38A, V40I
modifications: PEPTIDE (1)...(131) wild-type rat intestinal fatty acid binding protein
B28: 38F1, 72A (protein, listed as Rattus norvegicus)
chain: B1 chain with L38F, V40I
modifications: PEPTIDE (1)...(131) wild-type rat intestinal fatty acid binding protein
B29: 102P, 72A (protein, listed as Rattus norvegicus)
chain: B1 chain with V40I, L102P
modifications: PEPTIDE (1)...(131) wild-type rat intestinal fatty acid binding protein
B30: 102R, 72A (protein, listed as Rattus norvegicus)
chain: B1 chain with V40I, L102R
modifications: PEPTIDE (1)...(131) wild-type rat intestinal fatty acid binding protein
B31: 38E1, 72A (protein, listed as Rattus norvegicus)
chain: B1 chain with L38E, V40I
modifications: PEPTIDE (1)...(131) wild-type rat intestinal fatty acid binding protein
B32: 102S, 72A (protein, listed as Rattus norvegicus)
chain: B1 chain with V40I, L102S
modifications: PEPTIDE (1)...(131) wild-type rat intestinal fatty acid binding protein
B33: 102Q, 72A (protein, listed as Rattus norvegicus)
chain: B1 chain with V40I, L102Q
modifications: PEPTIDE (1)...(131) wild-type rat intestinal fatty acid binding protein

A short description of one data set: Baseline fluorescence ratio Ro of probe in absence of analyte. The following applies: average baseline fluorescence ratio Ro of the clone probe; substitutions with respect to SEQ ID NO: 2.
For the molecule B1, the AvgOfRo was found to be 0.21.

On to B2, for which the AvgOfRo came out at 0.21.

B3: the AvgOfRo is listed as 0.26.

As for B4, the AvgOfRo was 0.24.

As to B5, the AvgOfRo is given as 0.20.

As for B6, the AvgOfRo is 0.27.

Take B7: the AvgOfRo was 0.32.

On to B8, for which the AvgOfRo is recorded as 0.24.

For the molecule B9, the AvgOfRo was 0.36.

In the case of B10, the AvgOfRo is listed as 0.30.

On to B11, for which the AvgOfRo was found to be 0.26.

Consider B12, for which the AvgOfRo was 0.23.

Turning to B13, the AvgOfRo stood at 0.31.

As to B14, the AvgOfRo is 0.19.

For the molecule B15, the AvgOfRo was found to be 0.50.

Consider B16, for which the AvgOfRo is 0.22.

With B17, the AvgOfRo is recorded as 0.18.

B18: the AvgOfRo is recorded as 0.34.

Consider B19, for which the AvgOfRo was determined as 0.23.

In the case of B20, the AvgOfRo turned out to be 0.29.

For B21, the AvgOfRo is on record as 0.19.

For the molecule B22, the AvgOfRo is given as 0.33.

Consider B23, for which the AvgOfRo was 0.22.

With B24, the AvgOfRo was 0.22.

Regarding B25, the AvgOfRo is recorded as 0.19.

As to B26, the AvgOfRo is given as 0.21.

The same data set, now with this note: baseline fluorescence ratio of probe, no fatty acid.
Turning to B27, the AvgOfRo was determined as 0.32.

B28: the AvgOfRo worked out at 0.19.

Take B29: the AvgOfRo came out at 0.34.

Turning to B12, the Ro is 0.225.

On to B30, for which the AvgOfRo is recorded as 0.33.

On to B31, for which the AvgOfRo came to 0.24.

For the molecule B32, the AvgOfRo amounted to 0.24.

As to B33, the AvgOfRo is 0.34.
